The values that follow are results of earlier work, collected in patent US20200061018A1, “METHODS AND COMPOSITIONS FOR TREATING PARKINSON'S DISEASE” (Cove Bio LLC, priority 2016, published 2020).

SMILES strings stand for the structures.

For the series the following is noted: crystalline; cited from earlier work.

As for `C[C@@H]1[C@H](O)[C@@H](C)/C=C/C=C/C=C/C=C/C=C/C=C/C=C/[C@H](O[C@@H]2O[C@H](C)[C@@H](O)[C@H](N)[C@@H]2O)C[C@@H]2O[C@](O)(C[C@@H](O)C[C@@H](O)[C@H](O)CC[C@@H](O)C[C@@H](O)CC(=O)O[C@H]1C)C[C@H](O)[C@H]2C(=O)O` [amphotericin B], the solubility in water entry is given as “insoluble”.
